The source of these data is the supplement of paper PMC9744312.

SMILES strings stand for the structures. Structures can show the parent of a compound that is named as a salt. The list shows a part of the results. The data scatter; read single values as rough.

The subject of the experiment is Peyronie's disease tunica albuginea primary fibroblasts. The experiment can be described thus: inhibition of TGF-beta1-induced alpha-SMA expression (myofibroblast transformation), relative to TGF-beta1-only and untreated controls; higher = stronger inhibition of myofibroblast transformation. To be noted: 10 µM; TGF-beta1 10 ng/mL; 72 h.
With `CCc1cccc2c3c([nH]c12)C(CC)(CC(=O)O)OCC3` (stereo not drawn) [Etodolac], the “inhibition of TGF-beta1-induced alpha-SMA expression” value (shortened to “inhibition”) came out at 1.72%.

Take `CCC[C@H](NC(=O)[C@@H]1[C@H]2CCC[C@H]2CN1C(=O)[C@@H](NC(=O)[C@@H](NC(=O)c1cnccn1)C1CCCCC1)C(C)(C)C)C(=O)C(=O)NC1CC1` [Telaprevir (VX-950)]: the “inhibition” value stood at 7.98%.

On to `COc1ccc(-c2cc(=O)c3c(O)cc(O[C@@H]4O[C@H](CO[C@@H]5O[C@@H](C)[C@H](O)[C@@H](O)[C@H]5O)[C@@H](O)[C@H](O)[C@H]4O)cc3o2)cc1O` [Diosmin], for which the “inhibition” value was determined as 10.3%.

In the case of `COc1cc(Nc2ncc(F)c(Nc3ccc4c(n3)N(COP(=O)(O)O)C(=O)C(C)(C)O4)n2)cc(OC)c1OC` [Fostamatinib (R788)], the “inhibition” value was greater than 100%.

For the compound `COc1cc(Nc2ncc(F)c(Nc3ccc4c(n3)N(COP(=O)(O)O)C(=O)C(C)(C)O4)n2)cc(OC)c1OC` [R788 (Fostamatinib) Disodium], the “inhibition” value is greater than 100%.

Consider `CC1(C)S[C@@H]2[C@H](NC(=O)[C@H](NC(=O)N3CCN(S(C)(=O)=O)C3=O)c3ccccc3)C(=O)N2[C@H]1C(=O)O` [Mezlocillin Sodium], for which the “inhibition” value is -40%.

For the compound `Cn1c(=O)cc(N2CCC[C@@H](N)C2)n(Cc2ccccc2C#N)c1=O` [Alogliptin], the “inhibition” value was 14.2%.

`Cc1nnc(C(C)C)n1C1C[C@H]2CC[C@@H](C1)N2CC[C@H](NC(=O)C1CCC(F)(F)CC1)c1ccccc1` (stereo in doubt) [Maraviroc]: the “inhibition” value came to 66.8%.

Consider `CCCCCCCN(CC)CCCC(O)c1ccc(NS(C)(=O)=O)cc1` (stereo not drawn) [Ibutilide Fumarate], for which the “inhibition” value was found to be 26.3%.

Turning to `OC[C@@H](O)[C@@H](O[C@@H]1O[C@H](CO)[C@H](O)[C@H](O)[C@H]1O)[C@H](O)[C@@H](O)CO` [Lactitol monohydrate], the “inhibition” value stood at 27.8%.

In the case of `OC[C@@H](O)[C@@H](O[C@@H]1O[C@H](CO)[C@H](O)[C@H](O)[C@H]1O)[C@H](O)[C@@H](O)CO` [Lactitol], the “inhibition” value was -19.4%.

As to `c1ccc2[nH]c(-c3cscn3)nc2c1` [Thiabendazole], the “inhibition” value stood at 8.73%.

Turning to `CC(C)(C)NC(=O)N[C@H](C(=O)N1C[C@H]2[C@@H]([C@H]1C(=O)NC(CC1CCC1)C(=O)C(N)=O)C2(C)C)C(C)(C)C` (stereo partly drawn) [Boceprevir], the “inhibition” value was determined as 7.52%.

Turning to `CN1CC2c3ccccc3Oc3ccc(Cl)cc3C2C1` (stereo not drawn) [Asenapine maleate], the “inhibition” value is greater than 100%.

With `COc1cc(C(=O)NC2CCCNC2)cc(OC)c1OC` (stereo not drawn) [Troxipide], the “inhibition” value was -6.45%.

Consider `C[C@]12CC[C@@H]3c4ccc(O)cc4CC[C@H]3[C@@H]1CCC2=O` [Estrone], for which the “inhibition” value turned out to be 13.8%.

As to `CCCCCCCCc1ccc(CCC(N)(CO)CO)cc1` [Fingolimod (FTY720) HCl], the “inhibition” value is greater than 100%.

`O=C1OC2(c3ccc(O)cc3Oc3cc(O)ccc32)c2ccccc21` [Fluorescein]: the “inhibition” value worked out at 17.3%.

Turning to `CN(C)[C@@H]1C(O)=C(C(N)=O)C(=O)[C@@]2(O)C(O)=C3C(=O)c4c(O)ccc(Cl)c4[C@@](C)(O)[C@H]3C[C@@H]12` [Chlortetracycline HCl], the “inhibition” value is 29.4%.

For the compound `CC(=O)OCC1=C(C(=O)O)N2C(=O)[C@@H](NC(=O)CSc3ccncc3)[C@H]2SC1` [Cephapirin Sodium], the “inhibition” value is 58.5%.

Regarding `O=C(O)CCC(=O)Nc1ccc(S(=O)(=O)Nc2nccs2)cc1` [Succinylsulfathiazole], the “inhibition” value was -24.6%.

For the compound `COc1cnc(NS(=O)(=O)c2ccc(N)cc2)nc1` [Sulfameter], the “inhibition” value is -4.25%.

Consider `O=C(O)CCn1c2c(c3ccccc31)C[C@H](NS(=O)(=O)c1ccc(F)cc1)CC2` [Ramatroban], for which the “inhibition” value turned out to be 16.3%.

As to `Cc1cccc(CN2CCN(C(c3ccccc3)c3ccc(Cl)cc3)CC2)c1` (stereo not drawn) [Meclizine 2HCl], the “inhibition” value was found to be 6.51%.

Take `CCCCC(C)(O)C/C=C/[C@H]1[C@H](O)CC(=O)[C@@H]1CCCCCCC(=O)OC` (mixture of isomers) [Misoprostol]: the “inhibition” value stood at 38.4%.

On to `COc1ccccc1O` [Guaiacol], for which the “inhibition” value stood at 20.1%.

Regarding `O=NN(CCCl)C(=O)NC1CCCCC1` [Lomustine], the “inhibition” value was found to be 11%.

Regarding `CCOC(=O)C1=C[C@]2(CC)CCCN3CCc4c(n1c1ccccc41)[C@@H]32` [Vinpocetine], the “inhibition” value amounted to 6.67%.

Take `CN1CCC(COc2cnc(-c3cccc(Cn4nc(-c5cccc(C#N)c5)ccc4=O)c3)nc2)CC1`: the “inhibition” value was -23.3%.

Take `CC(C)c1cc(C(=O)N2Cc3ccc(CN4CCN(C)CC4)cc3C2)c(O)cc1O`: the “inhibition” value was greater than 100%.

For `CC(C)NCC(O)COc1cccc2ccccc12` (stereo not drawn) [Propranolol HCl], the “inhibition” value stood at 75.6%.

As for `Cc1nc(NC(=O)N2CCC[C@H]2C(N)=O)sc1-c1ccnc(C(C)(C)C(F)(F)F)c1` [Alpelisib (BYL719)], the “inhibition” value is -17.5%.

In the case of `CCCCc1nc(C)c(CC(=S)N(C)C)c(=O)n1Cc1ccc(-c2ccccc2-c2nnn[nH]2)cc1` [Fimasartan], the “inhibition” value stood at 1.32%.

For the compound `CCCCCCc1ccc(O)cc1O` [Hexylresorcinol], the “inhibition” value was 51%.

Turning to `O=C(/C=C\n1cnc(-c2cc(C(F)(F)F)cc(C(F)(F)F)c2)n1)NNc1cnccn1` [Selinexor (KPT-330)], the “inhibition” value worked out at 68.4%.

`CC1(C)NC(=O)N(c2ccc([N+](=O)[O-])c(C(F)(F)F)c2)C1=O` [Nilutamide]: the “inhibition” value worked out at 29.7%.

For `COC(=O)[C@@H]1[C@H]2C[C@H]3c4[nH]c5ccccc5c4CCN3C[C@@H]2CC[C@@H]1O` [Yohimbine HCl], the “inhibition” value is -16.9%.

In the case of `CCS(=O)(=O)CCn1c([N+](=O)[O-])cnc1C` [Tinidazole], the “inhibition” value is 39.1%.

With `N#C[C@@H]1C[C@@H]2C[C@@H]2N1C(=O)[C@@H](N)C12CC3CC(CC(O)(C3)C1)C2` [Saxagliptin], the “inhibition” value is -0.684%.

As to `N#C[C@@H]1C[C@@H]2C[C@@H]2N1C(=O)[C@@H](N)C12CC3CC(CC(O)(C3)C1)C2` [Saxagliptin hydrate], the “inhibition” value turned out to be 14%.

`O=C1CCc2cc(OCCCCc3nnnn3C3CCCCC3)ccc2N1` [Cilostazol]: the “inhibition” value was -5.38%.

With `CCCCOc1cc(C(=O)NCCN(CC)CC)c2ccccc2n1` [Cinchocaine], the “inhibition” value amounted to 3.4%.

With `CCCCOc1cc(C(=O)NCCN(CC)CC)c2ccccc2n1` [Dibucaine HCl], the “inhibition” value is 28%.

`CCC1=C(C)CN(C(=O)NCCc2ccc(S(=O)(=O)NC(=O)N[C@H]3CC[C@H](C)CC3)cc2)C1=O` [Glimepiride]: the “inhibition” value is -1.54%.

For `OCc1cc(C(O)CNCCCCCCOCCCCc2ccccc2)ccc1O` (stereo not drawn) [Salmeterol Xinafoate], the “inhibition” value worked out at 12.4%.

With `OCc1cc(C(O)CNCCCCCCOCCCCc2ccccc2)ccc1O` (stereo not drawn) [Salmeterol], the “inhibition” value was 34.1%.

In the case of `CC(=O)OCC(=O)[C@@]12N=C(C)O[C@@H]1C[C@H]1[C@@H]3CCC4=CC(=O)C=C[C@]4(C)[C@H]3[C@@H](O)C[C@@]12C` [Deflazacort], the “inhibition” value was 32.2%.

`CNCCC(Oc1ccc(C(F)(F)F)cc1)c1ccccc1` (stereo not drawn) [Fluoxetine HCl]: the “inhibition” value is 23.8%.

Consider `Cc1nc2n(c(=O)c1CCN1CCC(c3noc4cc(F)ccc34)CC1)CCCC2` [Risperidone], for which the “inhibition” value was determined as 6.2%.

As to `N=C(N)NCCC[C@H](N)C(=O)O` [L-Arginine HCl (L-Arg)], the “inhibition” value was 10.6%.

Consider `CC1CCC(C(C)C)C(O)C1` (single isomer, unassigned; (-)) [(-)-Menthol], for which the “inhibition” value came to 13.7%.

In the case of `CC(=O)Nc1ccc(CC(=O)O)cc1` [Actarit], the “inhibition” value is 17.5%.

Turning to `C[C@@H](CN1CC(=O)NC(=O)C1)N1CC(=O)NC(=O)C1` [Dexrazoxane], the “inhibition” value was found to be 27.7%.

As for `C[C@@H](CN1CC(=O)NC(=O)C1)N1CC(=O)NC(=O)C1` [Dexrazoxane HCl (ICRF-187, ADR-529)], the “inhibition” value was -17.6%.

On to `CC(=O)N[C@H]1[C@H]([C@H](O)[C@H](O)CO)OC(C(=O)O)=C[C@@H]1NC(=N)N` [Zanamivir], for which the “inhibition” value came out at 5.11%.

Take `CCC(=O)O[C@]1(C(=O)CCl)[C@@H](C)C[C@H]2[C@@H]3C[C@H](F)C4=CC(=O)C=C[C@]4(C)[C@@]3(F)[C@@H](O)C[C@@]21C` [Halobetasol Propionate]: the “inhibition” value amounted to 51.4%.

`CCN1CC(CCN2CCOCC2)C(c2ccccc2)(c2ccccc2)C1=O` (stereo not drawn) [Doxapram HCl]: the “inhibition” value was -2.54%.

Take `CCN1CC(CCN2CCOCC2)C(c2ccccc2)(c2ccccc2)C1=O` (stereo not drawn) [Doxapram]: the “inhibition” value turned out to be 14.5%.

With `CC[C@H](C)[C@H](NC(=O)[C@@H]1CCCN1C(=O)CNC(=O)[C@H](Cc1ccccc1)NC(=O)[C@H](CC(N)=O)NC(=O)[C@H](CC(N)=O)NC(=O)[C@H](CO)NC(=O)[C@H](CO)NC(=O)[C@H](Cc1c[nH]cn1)NC(=O)[C@@H](NC(=O)[C@H](CC(C)C)NC(=O)[C@H](Cc1ccccc1)NC(=O)[C@H](CC(N)=O)NC(=O)[C@H](C)NC(=O)[C@H](CC(C)C)NC(=O)[C@H](CCCNC(=N)N)NC(=O)[C@H](CCC(N)=O)NC(=O)[C@@H](NC(=O)[C@H](C)NC(=O)[C@@H]1CSSC[C@H](NC(=O)[C@@H](N)CCCCN)C(=O)N[C@@H](CC(N)=O)C(=O)N[C@@H]([C@@H](C)O)C(=O)N[C@@H](C)C(=O)N[C@@H]([C@@H](C)O)C(=O)N1)[C@@H](C)O)C(C)C)C(=O)N[C@@H](CC(C)C)C(=O)N1CCC[C@H]1C(=O)N1CCC[C@H]1C(=O)N[C@H](C(=O)N[C@@H](CC(N)=O)C(=O)N[C@H](C(=O)NCC(=O)N[C@@H](CO)C(=O)N[C@@H](CC(N)=O)C(=O)N[C@H](C(=O)N[C@@H](Cc1ccc(O)cc1)C(N)=O)[C@@H](C)O)C(C)C)[C@@H](C)O` [Pramlintide Acetate], the “inhibition” value is 51.2%.

`CCCCNC(=O)NS(=O)(=O)c1ccc(C)cc1` [Tolbutamide]: the “inhibition” value amounted to 29.7%.

As to `O=C(O)c1cc(-c2ccc(F)cc2F)ccc1O` [Diflunisal], the “inhibition” value worked out at 43.8%.

`CCOC(=O)OC(C)OC1=C(C(=O)Nc2ccccn2)N(C)S(=O)(=O)c2ccccc21` (stereo not drawn) [Ampiroxicam]: the “inhibition” value was found to be 20.8%.

As for `O=C(Nc1c(Cl)cncc1Cl)c1ccc(OC(F)F)c(OCC2CC2)c1` [Roflumilast], the “inhibition” value came out at 49%.
